For part of these data: Expression values are those of the mRNA of the gene that encodes the peptide; a gene is named only where it was looked up.
Assays:
[1] = tested on: source genes (mRNA); test: Gene and exon expression of source genes, TCGA tumor samples compared with normal tissue samples (Lonsdale, 2013) (Table 17); design: species or system human
[2] = tested on: HLA-A*24; test: Identification and relative LC-MS quantitation of HLA-A*24-presented tumor-associated peptides on tissue samples (presentation profiles, Tables 14A, 14B, 16, FIG. 1); design: species or system human; key to Presentation score GC / Presentation score NSCLC / Presentation score PCA / Presentation score GB / Presentation score HCC / Presentation score RCC: specifically presented on tumors (++++); very highly over-presented on tumors compared to a panel of normal tissues (+++); highly over-presented on tumors compared to a panel of normal tissues (++); over-presented on tumors compared to a panel of normal tissues (+); conditions: for Presentation score HCC / Presentation score NSCLC / Presentation score RCC / Presentation score GB / Presentation score PCA / Presentation score GC: HLA-A*24 peptides; for Presentation score HCC: hepatocellular carcinoma (N = 15) vs panel of normal tissues (N = 70); for Presentation score NSCLC: non-small cell lung cancer (N = 91) vs panel of normal tissues (N = 70); for Presentation score RCC: renal cell carcinoma (N = 2) vs panel of normal tissues (N = 70); for Presentation score GB: glioblastoma (N = 18) vs panel of normal tissues (N = 70); for Presentation score PCA: prostate cancer (N = 40) vs panel of normal tissues (N = 70); for Presentation score GC: gastric cancer (N = 44) vs panel of normal tissues (N = 70); for number of cancer tissues where the peptide was found to be presented / number of normal tissues where the peptide was found to be presented: only samples with presentation shown
[3] = Table 14A, HLA-A*24-binding tumor-associated peptides, cancer entities on which the peptide was found presented

Substance	Presentation score HCC [2]	Presentation score NSCLC [2]	Peptide Presentation on cancer entities [2, 3]	Presentation score GB [2]	Presentation score GC [2]	also measured
171: peptide found in SMG1 (gene looked up) (LFIPSSKLLFL; listed as Homo sapiens) [compound 171]	+++	+++	NSCLC, HCC, RCC			Over-expression category of source gene (target coverage), BLCA ([1]; BLCA = Bladder urothelial carcinoma (N = 408), same cutoff): C (>=5% of tumors above the cutoff, but <20%); Over-expression category of source gene (target coverage), BRCA ([1]; BRCA = Breast cancer (N = 1104), tumors more than 2-fold above highest 75% percentile of normal tissues): B (>= 20% of tumors above the cutoff, but <50%); Over-expression category of source gene (target coverage), CHOL ([1]; CHOL = Cholangiocarcinoma (N = 36), same cutoff): C (>=5% of tumors above the cutoff, but <20%); Over-expression category of source gene (target coverage), COAD ([1]; COAD = Colon and rectal adenocarcinoma (N = 462), same cutoff): B (>= 20% of tumors above the cutoff, but <50%); Over-expression category of source gene (target coverage), DLBC ([1]; DLBC = Lymphoid neoplasm diffuse large B-cell lymphoma (N = 48), same cutoff): B (>= 20% of tumors above the cutoff, but <50%); Over-expression category of source gene (target coverage), ESCA ([1]; ESCA = Esophageal cancer (N = 185), same cutoff): B (>= 20% of tumors above the cutoff, but <50%); Over-expression category of source gene (target coverage), KICH ([1]; KICH = Kidney chromophobe (N = 66), same cutoff): B (>= 20% of tumors above the cutoff, but <50%); Over-expression category of source gene (target coverage), KIRC ([1]; KIRC = Clear cell kidney carcinoma (N = 534), same cutoff): C (>=5% of tumors above the cutoff, but <20%); Over-expression category of source gene (target coverage), KIRP ([1]; KIRP = Papillary kidney carcinoma (N = 291), same cutoff): C (>=5% of tumors above the cutoff, but <20%); Over-expression category of source gene (target coverage), LAML ([1]; LAML = Acute Myeloid Leukemia (N = 173), same cutoff): A (>=50% of tumors above the cutoff); Over-expression category of source gene (target coverage), LGG ([1]; LGG = Lower grade glioma (N = 534), same cutoff): C (>=5% of tumors above the cutoff, but <20%); Over-expression category of source gene (target coverage), LUAD ([1]; LUAD = Lung adenocarcinoma (N = 517), same cutoff): C (>=5% of tumors above the cutoff, but <20%); Over-expression category of source gene (target coverage), LUSC ([1]; LUSC = Lung squamous cell carcinoma (N = 503), same cutoff): B (>= 20% of tumors above the cutoff, but <50%); Over-expression category of source gene (target coverage), OV ([1]; OV = Ovarian serous cystadenocarcinoma (N = 309), same cutoff): C (>=5% of tumors above the cutoff, but <20%); Over-expression category of source gene (target coverage), PAAD ([1]; PAAD = Pancreatic ductal adenocarcinoma (N = 179), same cutoff): C (>=5% of tumors above the cutoff, but <20%); Over-expression category of source gene (target coverage), READ ([1]; READ = Colon and rectal adenocarcinoma (N = 167), same cutoff): A (>=50% of tumors above the cutoff); Over-expression category of source gene (target coverage), SKCM ([1]; SKCM = Skin cutaneous melanoma (N = 473), same cutoff): B (>= 20% of tumors above the cutoff, but <50%); Over-expression category of source gene (target coverage), STAD ([1]; STAD = Stomach adenocarcinoma (N = 415), same cutoff): B (>= 20% of tumors above the cutoff, but <50%); Over-expression category of source gene (target coverage), UCEC ([1]; UCEC = Uterine corpus endometrial carcinoma (N = 546), same cutoff): A (>=50% of tumors above the cutoff); Presentation score RCC [2]: +++
228: peptide found in FGF2 (gene looked up) (KYTSWYVAL; listed as Homo sapiens) [compound 228]			GB, PCA	++		Target coverage: over-expression category of source gene, BRCA ([1]; Breast cancer (N = 1104), tumor expression more than 2-fold above highest 75% percentile of high and medium risk normal tissues): C (>=5% of tumors above the cutoff, but <20%); Target coverage: over-expression category of source gene, KIRC ([1]; Clear cell kidney carcinoma (N = 534), tumor expression more than 2-fold above highest 75% percentile of high and medium risk normal tissues): C (>=5% of tumors above the cutoff, but <20%); Target coverage: over-expression category of source gene, GBM ([1]; Glioblastoma multiforme (N = 169), tumor expression more than 2-fold above highest 75% percentile of high and medium risk normal tissues): B (>= 20% of tumors above the cutoff, but <50%); Target coverage: over-expression category of source gene, KICH ([1]; Kidney chromophobe (N = 66), tumor expression more than 2-fold above highest 75% percentile of high and medium risk normal tissues): C (>=5% of tumors above the cutoff, but <20%); Target coverage: over-expression category of source gene, LGG ([1]; Lower grade glioma (N = 534), tumor expression more than 2-fold above highest 75% percentile of high and medium risk normal tissues): A (>=50% of tumors above the cutoff); Target coverage: over-expression category of source gene, LUSC ([1]; Lung squamous cell carcinoma (N = 503), tumor expression more than 2-fold above highest 75% percentile of high and medium risk normal tissues): C (>=5% of tumors above the cutoff, but <20%); Target coverage: over-expression category of source gene, PAAD ([1]; Pancreatic ductal adenocarcinoma (N = 179), tumor expression more than 2-fold above highest 75% percentile of high and medium risk normal tissues): C (>=5% of tumors above the cutoff, but <20%); Target coverage: over-expression category of source gene, KIRP ([1]; Papillary kidney carcinoma (N = 291), tumor expression more than 2-fold above highest 75% percentile of high and medium risk normal tissues): C (>=5% of tumors above the cutoff, but <20%); Target coverage: over-expression category of source gene, SKCM ([1]; Skin cutaneous melanoma (N = 473), tumor expression more than 2-fold above highest 75% percentile of high and medium risk normal tissues): C (>=5% of tumors above the cutoff, but <20%); Target coverage: over-expression category of source gene, STAD ([1]; Stomach adenocarcinoma (N = 415), tumor expression more than 2-fold above highest 75% percentile of high and medium risk normal tissues): C (>=5% of tumors above the cutoff, but <20%); Presentation score PCA [2]: +
301: peptide found in AIFM2 (gene looked up) (AYKPGALTF; listed as Homo sapiens) [compound 301]	++++	++++	NSCLC, HCC			Target coverage: over-expression category of source gene, COAD ([1]; Colon and rectal adenocarcinoma (N = 462), tumor expression more than 2-fold above highest 75% percentile of high and medium risk normal tissues): C (>=5% of tumors above the cutoff, but <20%); Target coverage: over-expression category of source gene, LIHC ([1]; Liver hepatocellular carcinoma (N = 374), tumor expression more than 2-fold above highest 75% percentile of high and medium risk normal tissues): C (>=5% of tumors above the cutoff, but <20%); Target coverage: over-expression category of source gene, UCEC ([1]; Uterine corpus endometrial carcinoma (N = 546), tumor expression more than 2-fold above highest 75% percentile of high and medium risk normal tissues): C (>=5% of tumors above the cutoff, but <20%)
169 (AYTLIAPNI; listed as Homo sapiens) [compound 169]	++++	++++	GC, NSCLC, HCC		++++	
196 (LYIDRPLPYL; listed as Homo sapiens) [compound 196]	+		GC, NSCLC, HCC, PCA, RCC			Presentation score RCC [2]: +
195 (TYSVSFPMF; listed as Homo sapiens) [compound 195]		+	GB, GC, NSCLC, HCC, PCA	+++		number of cell lines where the peptide was found to be presented ([2]; FIG. 1, A*24 positive samples, cell lines include benign prostate hyperplasias): 3; number of cancer tissues where the peptide was found to be presented ([2]; FIG. 1, A*24 positive samples): 58; number of normal tissues where the peptide was found to be presented ([2]; FIG. 1, A*24 positive samples): 1
205 (VHIPEVYLI; listed as Homo sapiens) [compound 205]			GC, NSCLC			
278 (RYISDQLFTNF; listed as Homo sapiens) [compound 278]			GB, GC, NSCLC, HCC, PCA, RCC	+	++	number of cancer tissues where the peptide was found to be presented ([2]; FIG. 1, A*24 positive samples): 31; number of normal tissues where the peptide was found to be presented ([2]; FIG. 1, A*24 positive samples): 1
181 (LYLDIINLF; listed as Homo sapiens) [compound 181]		++++	GC, NSCLC, PCA		++++	Presentation score PCA [2]: ++++
221 (RYSTGLAGNLL; listed as Homo sapiens) [compound 221]			GB, NSCLC, HCC, PCA			
219 (EYPLVINTL; listed as Homo sapiens) [compound 219]	+	+	GB, GC, NSCLC, HCC, RCC	+++		Presentation score RCC [2]: ++
279 (TYIESASEL; listed as Homo sapiens) [compound 279]			NSCLC, RCC			Presentation score RCC [2]: +++
269 (YFIDSTNLKTHF; listed as Homo sapiens) [compound 269]	++++	++++	GC, NSCLC, HCC		++++	
182 (IYQLDTASI; listed as Homo sapiens) [compound 182]		++++	GC, NSCLC, PCA		++++	Presentation score PCA [2]: ++++
204 (TYELRYFQI; listed as Homo sapiens) [compound 204]	+	+++	GB, GC, NSCLC, HCC	++	+++	
184 (VFQNFPLLF; listed as Homo sapiens) [compound 184]			GB, GC	++++	++++	Peptide Presentation on cancer entities ([2]; HLA-A*24-binding peptides, additional cancer entities, GB = glioblastoma, HCC = hepatocellular carcinoma, NSCLC = non-small cell lung cancer, PCA = prostate cancer): NSCLC
185 (IYKVGAPTI; listed as Homo sapiens) [compound 185]		++++	NSCLC			
159 (LYNKGFIYL; listed as Homo sapiens) [compound 159]		++++	GB, NSCLC, RCC	++++		Presentation score RCC [2]: ++++

Source: patent US20170189504A1, “NOVEL PEPTIDES AND COMBINATION OF PEPTIDES FOR USE IN IMMUNOTHERAPY AGAINST VARIOUS CANCERS” (immatics biotechnologies GmbH, priority 2015, published 2017)
